In the supplement of paper PMC10849652:
The list shows a part of the results.

Protein sequences, listed by entry. Tags and fused reporters are not part of them. Lines headed by an entry give the natural chain unless they say otherwise; changes in a name come on top.
UniProt Q00536: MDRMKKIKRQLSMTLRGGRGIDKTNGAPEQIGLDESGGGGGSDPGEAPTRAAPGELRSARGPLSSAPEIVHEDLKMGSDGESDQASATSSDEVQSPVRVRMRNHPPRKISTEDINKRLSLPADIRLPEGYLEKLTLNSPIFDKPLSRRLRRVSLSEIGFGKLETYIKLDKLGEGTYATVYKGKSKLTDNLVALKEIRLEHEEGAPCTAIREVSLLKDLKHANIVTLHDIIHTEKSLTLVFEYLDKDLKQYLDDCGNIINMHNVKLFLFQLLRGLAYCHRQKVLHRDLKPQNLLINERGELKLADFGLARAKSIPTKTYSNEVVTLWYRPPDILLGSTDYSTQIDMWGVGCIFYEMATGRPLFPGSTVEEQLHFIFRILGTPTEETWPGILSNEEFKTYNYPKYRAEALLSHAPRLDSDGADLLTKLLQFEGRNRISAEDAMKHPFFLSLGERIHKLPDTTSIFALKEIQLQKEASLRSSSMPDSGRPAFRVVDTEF
UniProt Q9BU64: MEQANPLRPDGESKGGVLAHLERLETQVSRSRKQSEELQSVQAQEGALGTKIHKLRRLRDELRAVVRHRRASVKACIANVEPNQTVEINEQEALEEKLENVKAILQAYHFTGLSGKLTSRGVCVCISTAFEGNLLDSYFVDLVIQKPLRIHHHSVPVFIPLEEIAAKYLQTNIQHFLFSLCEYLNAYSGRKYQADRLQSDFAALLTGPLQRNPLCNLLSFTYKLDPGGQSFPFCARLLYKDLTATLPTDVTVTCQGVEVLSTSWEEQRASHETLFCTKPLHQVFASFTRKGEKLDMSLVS
UniProt P50750, whole entry, looked up: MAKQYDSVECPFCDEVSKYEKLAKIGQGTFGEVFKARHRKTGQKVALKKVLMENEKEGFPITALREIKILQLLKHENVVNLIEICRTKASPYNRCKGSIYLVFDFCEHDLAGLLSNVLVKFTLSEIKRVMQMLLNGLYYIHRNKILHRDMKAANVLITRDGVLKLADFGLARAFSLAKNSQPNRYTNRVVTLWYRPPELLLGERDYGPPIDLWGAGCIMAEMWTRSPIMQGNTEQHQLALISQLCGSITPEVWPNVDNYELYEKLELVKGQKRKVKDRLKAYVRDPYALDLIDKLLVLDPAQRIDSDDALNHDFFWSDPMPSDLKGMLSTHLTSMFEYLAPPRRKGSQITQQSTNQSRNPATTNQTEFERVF
UniProt Q12873: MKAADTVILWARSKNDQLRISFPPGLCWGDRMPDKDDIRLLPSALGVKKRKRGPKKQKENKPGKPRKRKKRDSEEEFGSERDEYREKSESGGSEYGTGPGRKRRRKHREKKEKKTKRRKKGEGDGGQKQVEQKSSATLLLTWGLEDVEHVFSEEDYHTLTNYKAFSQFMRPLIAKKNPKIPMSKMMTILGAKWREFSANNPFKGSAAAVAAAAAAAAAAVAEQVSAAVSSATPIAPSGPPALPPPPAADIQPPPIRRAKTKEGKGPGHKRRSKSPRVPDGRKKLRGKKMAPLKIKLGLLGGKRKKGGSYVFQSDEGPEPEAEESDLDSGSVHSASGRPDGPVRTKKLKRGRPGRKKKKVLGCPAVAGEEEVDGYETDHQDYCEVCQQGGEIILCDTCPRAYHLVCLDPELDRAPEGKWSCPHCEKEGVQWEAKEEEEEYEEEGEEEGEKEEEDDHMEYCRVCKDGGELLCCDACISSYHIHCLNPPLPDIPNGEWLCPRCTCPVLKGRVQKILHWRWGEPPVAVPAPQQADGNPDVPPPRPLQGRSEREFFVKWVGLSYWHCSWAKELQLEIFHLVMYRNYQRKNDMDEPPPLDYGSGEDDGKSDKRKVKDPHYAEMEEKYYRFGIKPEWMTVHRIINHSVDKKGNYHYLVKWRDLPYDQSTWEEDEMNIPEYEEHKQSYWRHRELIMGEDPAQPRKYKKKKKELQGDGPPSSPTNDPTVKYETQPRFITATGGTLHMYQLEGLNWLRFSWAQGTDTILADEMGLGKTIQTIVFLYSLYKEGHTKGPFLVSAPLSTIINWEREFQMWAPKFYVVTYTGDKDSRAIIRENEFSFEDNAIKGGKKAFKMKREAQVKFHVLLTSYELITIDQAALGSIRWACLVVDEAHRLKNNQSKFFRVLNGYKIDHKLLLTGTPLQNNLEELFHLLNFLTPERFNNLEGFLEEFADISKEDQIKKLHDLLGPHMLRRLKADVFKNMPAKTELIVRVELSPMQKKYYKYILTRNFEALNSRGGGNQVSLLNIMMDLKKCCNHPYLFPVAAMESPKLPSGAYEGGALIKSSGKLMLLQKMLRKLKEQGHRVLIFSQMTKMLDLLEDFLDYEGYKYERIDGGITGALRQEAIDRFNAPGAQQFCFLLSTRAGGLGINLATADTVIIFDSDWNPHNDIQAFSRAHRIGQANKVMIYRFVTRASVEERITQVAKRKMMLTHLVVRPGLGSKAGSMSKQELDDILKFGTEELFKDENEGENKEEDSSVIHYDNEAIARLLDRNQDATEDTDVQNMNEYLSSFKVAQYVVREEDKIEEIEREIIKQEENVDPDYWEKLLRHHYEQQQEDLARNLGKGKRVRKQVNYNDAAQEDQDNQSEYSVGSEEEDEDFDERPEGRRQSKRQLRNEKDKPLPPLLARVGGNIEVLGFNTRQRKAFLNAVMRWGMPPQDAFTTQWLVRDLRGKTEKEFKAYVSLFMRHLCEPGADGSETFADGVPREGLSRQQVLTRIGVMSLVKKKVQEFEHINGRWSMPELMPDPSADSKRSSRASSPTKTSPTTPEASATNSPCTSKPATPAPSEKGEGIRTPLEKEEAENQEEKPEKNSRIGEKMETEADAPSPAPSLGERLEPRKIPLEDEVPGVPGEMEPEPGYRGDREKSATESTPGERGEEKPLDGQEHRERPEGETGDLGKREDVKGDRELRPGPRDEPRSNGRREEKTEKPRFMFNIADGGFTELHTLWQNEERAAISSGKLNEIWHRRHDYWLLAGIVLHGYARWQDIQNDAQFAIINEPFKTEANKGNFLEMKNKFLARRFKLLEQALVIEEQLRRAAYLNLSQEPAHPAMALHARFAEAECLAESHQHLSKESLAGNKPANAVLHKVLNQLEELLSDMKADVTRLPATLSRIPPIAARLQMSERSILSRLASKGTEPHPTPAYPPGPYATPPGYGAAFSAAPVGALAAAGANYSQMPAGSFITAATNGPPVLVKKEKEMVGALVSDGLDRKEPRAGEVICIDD
UniProt Q8WUX2: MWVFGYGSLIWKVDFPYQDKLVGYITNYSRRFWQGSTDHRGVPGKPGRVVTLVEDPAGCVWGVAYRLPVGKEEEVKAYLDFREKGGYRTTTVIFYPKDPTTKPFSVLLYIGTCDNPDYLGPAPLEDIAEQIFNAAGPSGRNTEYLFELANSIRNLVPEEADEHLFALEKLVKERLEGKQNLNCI
UniProt Q9Y5S2: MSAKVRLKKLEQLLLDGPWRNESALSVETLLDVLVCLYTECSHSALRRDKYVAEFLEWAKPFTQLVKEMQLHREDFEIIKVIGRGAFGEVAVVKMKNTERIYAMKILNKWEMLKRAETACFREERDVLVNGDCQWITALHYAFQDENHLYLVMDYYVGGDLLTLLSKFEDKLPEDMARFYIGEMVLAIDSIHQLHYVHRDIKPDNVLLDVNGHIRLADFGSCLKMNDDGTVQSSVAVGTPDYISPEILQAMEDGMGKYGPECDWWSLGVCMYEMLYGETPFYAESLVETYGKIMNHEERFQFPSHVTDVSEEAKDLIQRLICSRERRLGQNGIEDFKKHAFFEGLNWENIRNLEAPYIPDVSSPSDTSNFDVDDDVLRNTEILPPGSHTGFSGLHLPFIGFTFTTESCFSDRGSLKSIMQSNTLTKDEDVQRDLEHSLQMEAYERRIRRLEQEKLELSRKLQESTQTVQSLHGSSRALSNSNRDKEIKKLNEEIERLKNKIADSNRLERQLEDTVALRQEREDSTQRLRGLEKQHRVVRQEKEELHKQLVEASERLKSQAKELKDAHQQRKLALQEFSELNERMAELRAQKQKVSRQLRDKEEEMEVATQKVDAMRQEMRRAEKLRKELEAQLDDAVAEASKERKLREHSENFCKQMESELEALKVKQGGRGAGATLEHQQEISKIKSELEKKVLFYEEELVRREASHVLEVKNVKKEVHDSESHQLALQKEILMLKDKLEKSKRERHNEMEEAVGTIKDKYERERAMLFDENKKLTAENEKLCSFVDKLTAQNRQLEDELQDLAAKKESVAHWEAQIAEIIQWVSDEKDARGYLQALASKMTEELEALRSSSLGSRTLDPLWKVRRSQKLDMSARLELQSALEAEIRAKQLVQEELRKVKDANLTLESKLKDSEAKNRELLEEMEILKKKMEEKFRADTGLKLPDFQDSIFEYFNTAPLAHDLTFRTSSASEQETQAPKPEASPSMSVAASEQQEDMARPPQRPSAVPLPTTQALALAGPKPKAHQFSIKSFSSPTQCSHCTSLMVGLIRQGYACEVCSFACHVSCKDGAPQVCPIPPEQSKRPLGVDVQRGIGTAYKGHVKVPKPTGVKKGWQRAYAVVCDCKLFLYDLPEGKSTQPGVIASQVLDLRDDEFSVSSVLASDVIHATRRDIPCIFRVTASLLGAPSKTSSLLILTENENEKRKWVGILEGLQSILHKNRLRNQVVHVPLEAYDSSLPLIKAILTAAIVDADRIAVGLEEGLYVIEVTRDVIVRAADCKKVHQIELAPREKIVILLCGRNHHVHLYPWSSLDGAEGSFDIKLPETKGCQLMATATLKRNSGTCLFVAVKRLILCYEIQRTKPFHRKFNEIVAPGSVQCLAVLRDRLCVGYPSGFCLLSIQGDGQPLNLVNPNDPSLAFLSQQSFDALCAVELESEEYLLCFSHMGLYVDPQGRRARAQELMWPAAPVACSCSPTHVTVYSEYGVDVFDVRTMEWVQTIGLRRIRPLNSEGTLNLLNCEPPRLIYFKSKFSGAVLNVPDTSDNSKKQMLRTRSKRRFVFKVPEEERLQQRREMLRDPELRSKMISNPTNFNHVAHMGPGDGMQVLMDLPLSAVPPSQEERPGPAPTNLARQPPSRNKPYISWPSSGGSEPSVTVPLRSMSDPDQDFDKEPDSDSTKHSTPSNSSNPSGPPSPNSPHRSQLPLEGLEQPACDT
UniProt Q9Y5P4: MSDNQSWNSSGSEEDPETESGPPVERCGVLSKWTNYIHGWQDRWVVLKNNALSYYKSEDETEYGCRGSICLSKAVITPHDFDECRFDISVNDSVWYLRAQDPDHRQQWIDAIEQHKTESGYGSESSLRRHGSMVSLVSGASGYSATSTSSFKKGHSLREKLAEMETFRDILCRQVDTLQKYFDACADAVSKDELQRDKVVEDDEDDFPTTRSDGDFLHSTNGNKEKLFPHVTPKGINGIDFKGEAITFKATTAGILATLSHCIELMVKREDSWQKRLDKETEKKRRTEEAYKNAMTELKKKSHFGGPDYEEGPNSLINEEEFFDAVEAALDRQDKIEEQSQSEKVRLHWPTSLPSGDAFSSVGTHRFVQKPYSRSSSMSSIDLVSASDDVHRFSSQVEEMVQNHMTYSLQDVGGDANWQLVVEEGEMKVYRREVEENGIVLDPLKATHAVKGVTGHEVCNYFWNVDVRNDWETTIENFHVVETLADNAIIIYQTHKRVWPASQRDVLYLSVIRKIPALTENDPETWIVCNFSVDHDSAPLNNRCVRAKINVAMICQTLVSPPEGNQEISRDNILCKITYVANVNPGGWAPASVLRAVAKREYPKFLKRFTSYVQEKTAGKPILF
UniProt O14519: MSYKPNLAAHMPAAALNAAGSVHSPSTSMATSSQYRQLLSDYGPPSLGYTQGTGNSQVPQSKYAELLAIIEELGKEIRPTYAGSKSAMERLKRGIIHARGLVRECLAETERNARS
UniProt Q9H3Q1: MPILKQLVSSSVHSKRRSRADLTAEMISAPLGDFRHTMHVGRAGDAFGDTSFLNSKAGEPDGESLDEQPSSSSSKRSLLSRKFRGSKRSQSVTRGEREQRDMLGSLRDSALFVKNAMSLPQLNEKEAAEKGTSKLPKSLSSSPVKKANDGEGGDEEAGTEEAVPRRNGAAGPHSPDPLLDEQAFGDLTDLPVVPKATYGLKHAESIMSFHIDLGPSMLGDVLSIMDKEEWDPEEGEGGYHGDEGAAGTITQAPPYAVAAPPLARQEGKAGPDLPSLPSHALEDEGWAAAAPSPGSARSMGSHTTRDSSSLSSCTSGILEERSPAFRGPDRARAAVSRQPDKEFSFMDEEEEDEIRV
UniProt Q7Z7K6: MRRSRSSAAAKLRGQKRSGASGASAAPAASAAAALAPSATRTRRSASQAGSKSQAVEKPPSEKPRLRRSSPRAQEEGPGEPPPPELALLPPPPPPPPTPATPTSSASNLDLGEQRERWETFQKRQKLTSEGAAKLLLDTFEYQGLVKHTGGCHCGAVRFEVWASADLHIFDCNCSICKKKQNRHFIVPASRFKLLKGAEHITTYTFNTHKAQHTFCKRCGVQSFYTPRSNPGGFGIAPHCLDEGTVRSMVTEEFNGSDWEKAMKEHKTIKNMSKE
UniProt Q8N2Z9: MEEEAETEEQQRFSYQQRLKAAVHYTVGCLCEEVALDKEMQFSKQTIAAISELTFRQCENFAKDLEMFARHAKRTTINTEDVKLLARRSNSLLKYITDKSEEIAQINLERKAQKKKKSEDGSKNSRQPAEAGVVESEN

Columns and labels:
Assay in all cases: log2 fold change, soluble protein after heating vs DMSO (PISA); higher = thermal stabilisation; K562 cells, 10 uM, 30 min; active = over 0.2 and 3.5 SD of the protein, either way, in both replicates (recomputed)
[1] = compound: CC1=C(C=C(C=C1)NC(=O)C2=CC(=CC=C2)C(C)(C)C#N)NC3=CC4=C(C=C3)N=CN(C4=O)C
Outline: (§1)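 Thermal stability values are relative to control samples and come from duplicates. They are expressed as log2 fold changes. For measurement, K562 cells (2×10^6 cells/mL) received 10 μM compound for 30 min, and aliquots were heated for 3 min over 48°C-58°C, pooled, and extracted at 4°C in PBS with 0.5% NP-40. Soluble protein, the supernatant after 21,000xg for 90 min, was quantified by TMTpro 16plex LC-MS/MS with equalised channel sums.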

[2] = compound: CC1=C(C=C(C=C1)NC(=O)C2=CC(=CC=C2)N(C)C)NC(=O)C3=CC=C(C=C3)O
Outline: as §1

[3] = compound: CC1=CC=C(C=C1)SC2=C3C=C(SC3=CN=C2)C(=O)N
Outline: as §1

[4] = compound: CC1=NC(=CC=C1)C2=C(N=C(N2)C(C)(C)C)C3=CC4=NC=CN=C4C=C3
Outline: as §1

Nexturastat A = compound: CCCCN(Cc1ccc(C(=O)NO)cc1)C(=O)Nc1ccccc1 [Nexturastat A]
Outline: as §1

vemurafenib = compound: CCCS(=O)(=O)Nc1ccc(F)c(C(=O)c2c[nH]c3ncc(-c4ccc(Cl)cc4)cc23)c1F [vemurafenib]
Outline: as §1

[5] = compound: CCCS(=O)(=O)Nc1ccc(F)c(C(=O)c2c[nH]c3ncc(Cl)cc23)c1F
Outline: as §1

[6] = compound: CCCc1cc(C)[nH]c(=O)c1CNC(=O)c1cc(-c2ccnc(N3CCN(C)CC3)c2)cc2c1cnn2C(C)C
Outline: as §1

givinostat = compound: CCN(CC)Cc1ccc2cc(COC(=O)Nc3ccc(C(=O)NO)cc3)ccc2c1 [givinostat]
Outline: as §1

barasertib = compound: CCN(CCCOc1ccc2c(Nc3cc(CC(=O)Nc4cccc(F)c4)[nH]n3)ncnc2c1)CCOP(=O)(O)O [barasertib]
Outline: as §1

[7] = compound: CC[C@@H]1C(=O)N(C)c2cnc(Nc3ccc(C(=O)NC4CCN(C)CC4)cc3OC)nc2N1C1CCCC1
Outline: as §1

volasertib = compound: CC[C@@H]1C(=O)N(C)c2cnc(Nc3ccc(C(=O)N[C@H]4CC[C@H](N5CCN(CC6CC6)CC5)CC4)cc3OC)nc2N1C(C)C [volasertib]
Outline: as §1

[8] = compound: CC[C@H](C)N1C=C(C2=C(C=C(C=C21)C3=CN=C(C=C3)N4CCNCC4)C(=O)NCC5=C(C=C(NC5=O)C)C)C
Outline: as §1

epoxomicin = compound: CC[C@H](C)[C@@H](C(=O)N[C@@H]([C@@H](C)O)C(=O)N[C@@H](CC(C)C)C(=O)[C@]1(CO1)C)NC(=O)[C@H]([C@@H](C)CC)N(C)C(=O)C [epoxomicin]
Outline: as §1

[9] = compound: CCn1cc(-c2ccnc3[nH]c(-c4cccc(CN(C)C)c4)cc23)c(-c2ccc(NC(=O)N(C)C)cc2)n1
Outline: as §1

[10] = compound: CN(C)CC(=O)Nc1ccc2[nH]c(=O)c3ccccc3c2c1
Outline: as §1

[11] = compound: CN1C2=C(C3=C1C(=O)N(N=C3)CC4=CC(=CC=C4)N)SC(=C2)S(=O)C
Outline: as §1

[12] = compound: CN1CCC(CNc2ccc3ncc(-c4cccc(OC(F)(F)F)c4)n3n2)CC1
Outline: as §1

[13] = compound: CCn1c(C(=O)N(C2CC2)C2CC2)cc2c3c(ncn3C)c(Nc3cc(C)n(C)n3)nc21
Outline: as §1

rosiglitazone = compound: CN(CCOC1=CC=C(C=C1)C[C@H]2C(=O)NC(=O)S2)C3=CC=CC=N3 (racemic) [rosiglitazone]
Outline: as §1

Measured: log2 fold change

CHKA (UniProt P35790)
active: givinostat 0.334
inactive: [1] -0.011 | [2] -0.048 | [3] -0.125 | [4] 0.033 | Nexturastat A 0.036 | vemurafenib -0.017 | [5] 0.019 | [6] -0.164 | barasertib 0.05 | [7] 0.22 | volasertib 0.161 | [8] -0.077 | epoxomicin 0.127 | [9] 0.203 | [10] 0.043 | [11] -0.082 | [12] 0.187

CDK16 isoform 2 (UniProt Q00536)
inactive: [1] 0.003 | [2] -0.017 | [3] 0.028 | [4] 0.021 | Nexturastat A -0.052 | vemurafenib -0.072 | [5] 0.027 | [6] -0.101 | givinostat -0.043 | barasertib -0.023 | [7] -0.049 | volasertib -0.316 | [8] -0.014 | epoxomicin 0.02 | [9] 0.001 | [10] 0.041 | [11] -0.074 | [12] 0.135

CENPO (UniProt Q9BU64)
inactive: [1] 0.149 | [2] -0.159 | [3] 0.106 | [4] -0.114 | Nexturastat A -0.058 | vemurafenib -0.087 | [5] 0.003 | [6] 0.11 | givinostat -0.125 | barasertib 0.072 | [7] -0.003 | volasertib 0.022 | [8] -0.062 | epoxomicin 0 | [13] -0.099 | [10] 0.111 | rosiglitazone -0.046 | [11] -0.224

CDK9 isoform 2 (UniProt P50750)
inactive: [1] 0.053 | [2] -0.067 | [3] -0.001 | [4] -0.084 | Nexturastat A 0.155 | vemurafenib -0.052 | [5] 0.024 | [6] 0.036 | givinostat 0.014 | barasertib 0.002 | [7] -0.01 | volasertib 0.078 | [8] 0.064 | epoxomicin -0.06 | [9] -0.092 | [10] -0.042 | [11] 0.178 | [12] 0.205

CELF2 isoform 3 (UniProt O95319)
inactive: [1] 0.075 | [2] 0.01 | [3] 0.112 | [4] -0.006 | Nexturastat A -0.025 | vemurafenib 0.065 | [5] 0.005 | [6] -0.02 | givinostat -0.008 | barasertib 0.001 | [7] 0.115 | volasertib -0.028 | [8] 0.02 | epoxomicin 0.018 | [9] 0.103 | [10] 0.006 | [11] -0.04 | [12] 0.111

CHMP4B (UniProt Q9H444)
inactive: [1] 0.181 | [2] 0.008 | [3] -0.073 | [4] 0.007 | Nexturastat A -0.04 | vemurafenib -0.036 | [5] -0.126 | [6] -0.02 | givinostat -0.061 | barasertib 0.001 | [7] -0.05 | volasertib 0.062 | [8] -0.044 | epoxomicin -0.008 | [9] -0.065 | [10] -0.053 | [11] -0.057 | [12] -0.033

CHD3 isoform 3 (UniProt Q12873)
inactive: [1] 0.03 | [2] -0.035 | [3] 0.016 | [4] -0.077 | Nexturastat A 0.056 | vemurafenib 0.113 | [5] 0.138 | [6] 0.081 | givinostat 0.226 | barasertib 0.046 | [7] -0.093 | [8] 0.149 | epoxomicin 0.017 | [9] 0.067 | [10] 0.126 | [11] 0.099 | [12] -0.144
active: volasertib -0.757

Pulled one by one from the list above, 2 records:
CDK16 isoform 2 (UniProt Q00536)
inactive: [1] 0.003 | [2] -0.017 | [3] 0.028 | [4] 0.021 | Nexturastat A -0.052 | vemurafenib -0.072 | [5] 0.027 | [6] -0.101 | givinostat -0.043 | barasertib -0.023 | [7] -0.049 | volasertib -0.316 | [8] -0.014 | epoxomicin 0.02 | [9] 0.001 | [10] 0.041 | [11] -0.074 | [12] 0.135

CELF2 isoform 3 (UniProt O95319)
inactive: [1] 0.075 | [2] 0.01 | [3] 0.112 | [4] -0.006 | Nexturastat A -0.025 | vemurafenib 0.065 | [5] 0.005 | [6] -0.02 | givinostat -0.008 | barasertib 0.001 | [7] 0.115 | volasertib -0.028 | [8] 0.02 | epoxomicin 0.018 | [9] 0.103 | [10] 0.006 | [11] -0.04 | [12] 0.111

Following part

CHCHD1 (UniProt Q96BP2)
inactive: [1] -0.02 | [2] -0.119 | [3] 0.279 | [4] 0.008 | Nexturastat A 0.141 | vemurafenib -0.044 | [5] 0.024 | [6] -0.747 | givinostat 0.013 | barasertib -0.105 | [7] -0.054 | volasertib -0.32 | [8] -0.001 | epoxomicin -0.026 | [9] -0.009 | [10] 0.02 | [11] 0.033 | [12] -0.191

CHAC2 (UniProt Q8WUX2)
inactive: [1] -0.001 | [2] 0.025 | [3] 0.037 | [4] 0.015 | Nexturastat A -0.026 | vemurafenib 0.04 | [5] 0.031 | [6] -0.08 | givinostat 0.007 | barasertib 0.079 | volasertib -0.227 | [8] 0.035 | epoxomicin -0.025 | [9] -0.03 | [10] 0.002 | [11] -0.04 | [12] 0.041
active: [7] -0.343

CDC42BPB (UniProt Q9Y5S2)
inactive: [1] -0.073 | [2] -0.07 | [3] -0.034 | [4] -0.072 | Nexturastat A 0.052 | vemurafenib -0.046 | [5] -0.034 | [6] 0.079 | givinostat -0.096 | barasertib -0.087 | [7] 0.171 | volasertib 0.051 | [8] -0.105 | epoxomicin -0.065 | [9] 0.062 | [10] 0.046 | [11] 0.048 | [12] -0.195

CERT isoform 3 (UniProt Q9Y5P4)
active: [12] 0.279
inactive: [1] 0.154 | [2] -0.103 | [3] -0.039 | [4] -0.001 | Nexturastat A -0.048 | vemurafenib 0.101 | [5] 0.061 | [6] 0.02 | givinostat -0.027 | barasertib -0.002 | [7] 0.06 | volasertib 0.044 | [8] 0.07 | epoxomicin 0.058 | [9] -0.057 | [10] -0.019 | [11] -0.127

CDK2AP1 (UniProt O14519)
inactive: [1] 0 | [2] 0.05 | [3] -0.008 | Nexturastat A -0.111 | [5] -0.096 | [6] 0.047 | givinostat 0.049 | barasertib 0.01 | [7] 0.057 | volasertib -0.081 | [8] 0.078 | epoxomicin 0.013 | [13] 0.033 | [9] 0.101 | rosiglitazone 0.172 | [12] 0.127

CDC42EP4 (UniProt Q9H3Q1)
inactive: [1] -0.037 | [2] -0.018 | [3] 0.006 | Nexturastat A 0.061 | vemurafenib 0 | [5] -0.039 | [6] -0.034 | givinostat 0.078 | barasertib -0.025 | [7] 0.047 | volasertib 0 | [8] 0.015 | epoxomicin -0.019 | [13] -0.013 | [9] -0.052 | [10] -0.008 | rosiglitazone 0.019 | [11] -0.027 | [12] -0.053

CEND1 (UniProt Q8N111)
inactive: [1] -0.094 | [2] 0.045 | [3] -0.034 | [5] -0.01 | givinostat 0.05 | volasertib 0.039 | [13] -0.048

CEP135 (UniProt Q66GS9)
inactive: [1] 0.151 | [4] -0.128 | Nexturastat A 0.16 | barasertib 0.051 | [7] -0.078 | epoxomicin 0.108 | [9] -0.079 | rosiglitazone 0.196 | [11] 0.171 | [12] 0.206

CEP170B (UniProt Q9Y4F5)
inactive: [1] -0.043 | [2] -0.013 | [4] -0.01 | Nexturastat A 0.041 | vemurafenib -0.049 | [6] 0.041 | barasertib 0.027 | [7] 0.095 | epoxomicin -0.135 | [9] 0.143 | [10] -0.006 | rosiglitazone -0.039 | [11] 0.111 | [12] -0.078

CENPV (UniProt Q7Z7K6)
inactive: [1] -0.088 | [2] 0.019 | [3] 0.099 | Nexturastat A 0.435 | [5] -0.125 | volasertib -0.051 | epoxomicin -0.162 | [9] 0.117 | [12] 0.406

CENPS (UniProt Q8N2Z9)
inactive: [1] -0.03 | [3] -0.084 | [4] -0.171 | Nexturastat A -0.017 | vemurafenib 0.041 | [5] -0.004 | [6] -0.046 | givinostat -0.025 | barasertib 0.123 | [7] -0.156 | volasertib -0.057 | [8] -0.032 | epoxomicin 0.059 | [13] 0.016 | [9] -0.009 | [10] -0.009 | rosiglitazone -0.097 | [11] 0.007 | [12] 0.014

CDCA2 (UniProt Q69YH5)
active: Nexturastat A 0.638
inactive: [1] -0.134 | [2] 0.033 | [3] -0.047 | [4] -0.299 | vemurafenib -0.009 | [5] -0.043 | [6] -0.027 | givinostat 0.382 | [7] 0.193 | volasertib 0.275 | [8] -0.131 | epoxomicin -0.025 | [9] 0.152 | [10] -0.038 | [12] 0.205
